Assay results as given in patent US20240108662A1, “ENGINEERED CELLS FUNCTIONALIZED WITH IMMUNE CHECKPOINT MOLECULES AND USES THEREOF” (The University of North Carolina at Chapel Hill, priority 2020, published 2024).

B1: Q8BYL4 (protein, UniProt Q8BYL4 1-472, looked up)
chain: MAAPMLRRLCRVPQSLVWLRGSRAVRPGARGMLVAPRARGLFKEFFPESGTKTELPELFDRRRAGSSPQTVYCGFDPTGDSLHVGHLLTLLGLFHFQRAGHNVIALVGGSTALLGDPSGRTKGREALSAECVRANAHALRRGLEALAANHARLFADGRPWGSFTVLDNAAWFQEQHLVDFLATVGGHFRMGTLLSRLSVQSRLKSPEGMSLAEFFYQVLQAYDFYYLFQHYGCRVQLGGSDQLGNIMSGYEFIHKLTGEDVFGITVPLITSTTGAKLGKSAGNAVWLNREKTSPFELYQFFVRQQDDSVERYLKLFTFLPLPEIDHIMQLHVKEPEKRVAQKRLAAEVTKLVHGQEGLDSAKRCTQALYHSSIEALEVMSDQELKELFKEASFSELVLDPGTSVIDTCRKANAIPDGPRGYRMITEGGVSINHRQVTNPESVLVIGQHILKNGLSLLKIGKRNFYIIKWLQL
modifications: full-length
B2: Q8BFZ9 (protein, UniProt Q8BFZ9 1-340, looked up)
chain: MAQLGAVVAVASSFFCASLFSAVHKIEEGHIGVYYRGGALLTSTSGPGFHLMLPFITSYKSVQTTLQTDEVKNVPCGTSGGVMIYFDRIEVVNFLVPNAVYDIVKNYTADYDKALIFNKIHHELNQFCSVHTLQEVYIELFDQIDENLKLALQQDLTSMAPGLVIQAVRVTKPNIPEAIRRNYELMESEKTKLLIAAQKQKVVEKEAETERKKALIEAEKVAQVAEITYGQKVMEKETEKKISEIEDAAFLAREKAKADAECYTALKIAEANKLKLTPEYLQLMKYKAIASNSKIYFGKDIPNMFMDSAGGLGKQFEGLSDDKLGFGLEDEPLEAPTKEN
modifications: full-length
B3: Q9JHW4 (protein, UniProt Q9JHW4 1-583, looked up)
chain: MAGRRVNVNVGVLGHIDSGKTALARALSTTASTAAFDKQPQSRERGITLDLGFSCFVVPLPGAEPGSSDTLLQVTLVDCPGHASLIRTIIGGAQIIDLMMLVIDVTKGMQTQSAECLVIGQIACQKLVVVLNKIDLLAEGKRQAAIDKMTKKMQKTLENTKFRGAPIIPVAAKPGGPEAPETEAPQGISELIELLKSQISIPTRDPSGPFLMSVDHCFSIKGQGTVMTGTILSGTISLGDSVEIPALKVVKKVKSMQMFHTPVTSAMQGDRLGICVTQFDPKLLERGLVCAPESLHTVHAALISVEKIPYFRGPLQTKAKFHITVGHETVMGRTLFFSPAPDSFDLEPVLDSFDLSREYLFQEQYLCKDSMPTATEGDDEADPKAGHAPGGHCPRQQWALVEFEKPVTCPRLCLVIGSRLDADIHTNTCRLAFHGVLLQGLEDKNYIESFLPALRVYKLKHKHGLVERVMDDYSVIGRSLFKKETNIQLFVGLKVQLSTGEQGIIDSAFGQSGKFKIHIPGGLSPESKKILTPTLKKRSRAGRGETTKPEEGTERPEPIQPVTLNLSFKRYVFDTQKRMVQTP
modifications: full-length
B4: Q9CZJ2 (protein, UniProt Q9CZJ2 1-685, looked up)
chain: MLTVPEMGLQGLYISSSPERSPVPSPPGSPRTQESCGIAPLTPSQSPKPEARALQQASFSVVVAIDFGTTSSGYAFSFASDPEAIHMMRKWEGGDPGVAHQKTPTCLLLTPEGIFHSFGYTARDYYHDLDPEEARDWLYFEKFKMKIHSATDLTLKTQLEAVNGKKMLALEVFAHALRFFKEHALQELREQSECMLEKGAVRWVLTVPAIWKQPAKQFMREAAYLAGLVSREDAEKLLIALEPEAASVYCRKLRLHQLMDLSSRTAGRGRLGERRSIDSSFRHAREQLRRSRHSRTFLVEAGVGELWAEMQEGDRYMVADCGGGTVDLTVHQLEQPHGTLKELYKASGGPYGAVGVDLAFEQLLCRIFGEDFIAKFKRQRPAAWVDLTIAFEARKRTAGPHRAGALNISLPFSFIDFYRKQRGHNVETALRRSSVNLVKWSSQGMLRMSCEAMNELFQPTVSGIIQHIEMLLAKPEVQGVKLLFLVGGFAESAVLQHAVQEALGTRGLRVVVPHDVGLTILKGAVLFGQAPGVVRVRRSPLTYGVGVLNRFVPGHHPPEKLLVRDGRRWCTDVFERFVAAEQSVALGEEVRRSYCPARPGQRRVLINLYCCAAEDARFITDPGVRKCGALSLELEPEGCPENTGTSPSRREIRAAMQFGDTEIKVTAVDVSTNRSVRAAIDFLSN
modifications: full-length
B5: Q8BHS6 (protein, UniProt Q8BHS6 1-379, looked up)
chain: MGYARKVGWVTAGLVIGAGACYCIYRLTRGRKQNKEKMAEGGSGDVDDAGDCSGARYNDWSDDDDDSNESKSIVWYPPWARIGTEAGTRARARARARATRARRAVQKRASPNSDDTVLSPQELQKVLCLVEMSEKPYILEAALIALGNNAAYAFNRDIIRDLGGLPIVAKILNTRDPIVKEKALIVLNNLSVNAENQRRLKVYMNQVCDDTVTSRLNSSVQLAGLRLLTNMTVTNEYQHILANSISDFFRLFSAGNEETKLQVLKLLLNLAENPAMTRELLRAQVPSSLGSLFNKKEYKEVILKLLIIFENINDNFKWEENEPAQNHFSEGSLFFFLKEFQVCADKVLGIESRHDFQVRVKVGKFVAKLTERMFPKSQE
modifications: full-length
B6: Q9ER41 (protein, UniProt Q9ER41 1-336, looked up)
chain: MRRIGAFGGSTALWALLAAHVAGAFEPVSVGIAIGAVSALTGYLSYTDFYCRFTECCHEERPLNTSALKLDLEEKLFGQHLATEVILKALTGFRNNKNSKKPLTLSLHGWAGTGKNFISQIVAENLYPKGLKSNFVHLFVSTLHFPHEQKIKVYQDQLQKWIRGNVSACGSSVFIFDEMDKLHPGIIDAIKPFLDYYEQVDGISYRRAIFIFLSNAGGDLITKTALDFWRAGRKREEIQLKDLEPVLSVGVFNNKHSGLWHSGLIDKNLIDYFIPFLPLEYKHVKMCVRAEMRARGAAVDEDVVTSVADEMTFFPKDEKIYSDKGCKTVQSRLDFH
modifications: full-length
B7: Q91V01 (protein, UniProt Q91V01 1-487, looked up)
chain: MASTADGDMGETLEQMRGLWPGVEDLSLNKLATSLGASEQALRLIFSIFLGYPLALFYRHYLFYKDSYLIHLFHTFTGLSIAYFNFGHQFYHSLLCVVLQFLILRLMGRTVTAVITTLCFQMAYLLAGYYYTATGDYDIKWTMPHCVLTLKLIGLCIDYYDGGKDGNSLTSEQQKYAIRGVPSLLEVAGFSYFYGAFLVGPQFSMNHYMKLVRGQLTDIPGKMPNSTIPALKRLSLGLVYLVGYTLLSPHITDDYLLTEDYDNRPFWFRCMYMLIWGKFVLYKYVTCWLVTEGVCILSGLGFNGFDENGTVRWDACANMKVWLFETTPRFNGTIASFNINTNAWVARYIFKRLKFLGNKELSQGLSLLFLALWHGLHSGYLICFQMEFLIVIVEKQVSSLIRDSPALSSLASITALQPFYYLVQQTIHWLFMGYSMTAFCLFTWDKWLKVYRSIYFLGHVFFLSLLFILPYIHKAMVPRKEKLKKRE
modifications: full-length
B8: O70585 (protein, UniProt O70585 1-659, looked up)
chain: MIEEGGNKRKTMAEKRQLFIEMRAQNFDVIRLSTYRTACKLRFVQKRCNLHLVDIWNMIEAFRDNGLNTLDHSTEISVSRLETVISSIYYQLNKRLPSTHQISVEQSISLLLNFMVAAYDSEGRGKLTVFSVKAMLATMCGGKMLDKLRYIFSQMSDSNGLMMFGKLDQFLKEALKLPTAVFEGPSFGYTEHAVRTCFPQQKKIMLNMFLDTMMADPPPQCLVWLPLMHRLAHVENVFHPVECSYCHCESMMGFRYRCQQCHNYQLCQNCFWRGHASGAHSNQHQMKEHSSWKSPAKKLSHAISKSLGCVPSREPPHPVFPEQPEKPLDLAHLVPPRPLTNMNDTVVSHMSSGVPTPTKRLQYSQDMPNLLADEHALIASYVARLQHCTRVLDSPSRLDEEHRLIARYAARLAAEAGNMTRPPTDASFNFDANKQQRQLIAELENKNREILQEIQRLRLEHEQASQPTPEKAQQNPMLLAELRLLRQRKDELEQRMSALQESRRELMVQLEGLMKLLKAQATGSPHTSPTHGGGRPMPMPVRSTSAGSTPTHGPQDSLSGVGGDVQEAFAQGTRRNLRNDLLVAADSITNTMSSLVKELHSGAEAEEQAGTEKTREGLPPRGTFLSVFLLHTWTKLAGCQTHSTSRERSQAYGKWGGTA
modifications: full-length
B9: P54116 (protein, UniProt P54116 1-284, looked up)
chain: MSDKRQSSHVQSQRIPESFRENSKTELGACGWILVAASFFFVIITFPISIWICIKIVKEYERVIIFRLGRILQGGAKGPGLFFILPCTDSLIKVDMRTISFDIPPQEVLTKDSVTISVDGVVYYRVQNATLAVANITNADSATRLLAQTTLRNALGTKNLSQILSDREEIAHHMQSTLDDATDDWGIKVERVEIKDVKLPVQLQRAMAAEAEAAREARAKVIAAEGEMNASRALKEASMVITESPAALQLRYLQTLTTIAAEKNSTIVFPLPVDMLQGIMGSNH
modifications: full-length
B10: Q6P8H8 (protein, UniProt Q6P8H8 1-526, looked up)
chain: MAASGSATAGGHWFSALALGVTLLKCLLIPTYHSTDFEVHRNWLAITHSLPISQWYYEATSEWTLDYPPFFAWFEYALSHIAKYFDQEMLNIHNLNYYSSRTLLFQRFSVILTDALFVYAVHECCKCIDGKRTGKDLTEKPKFILSVLLLWNFGLLIVDHIHFQYNGFLSGLLLLSIARLFQKRHIEGALLFAVLLHLKHIYLYVAPAYGVYLLRSYCFTASKPDGSVRWSSFSVVRVTSLGLIVFLVSALSLGPFLALNQLPQVFSRLFPFKRGLCHAYWAPNFWALYNALDKVLSVIGLKLKLLDPSQIPRASMTSGLVQQFQHTVLPSVSPLATLICTLIAILPSVFCLWFKPQGPRGFLRCLVLCALSSFMFGWHVHEKAILLAILPMSLLSVEKAGDATVFLILATTGHYSLFPLLFTAPELPIKILLMLLFTVYSISSLKTLFRKEKPLFNWMETVYLLGLGPLEVCCEFLLPFTSWKLKYPFIPLLLTSVYCAVGITYAWTRLYASVLTGSLVSKTKKH
modifications: full-length
B11: P29788 (protein, UniProt P29788 1-478, looked up)
chain: MAPLRPFFILALVAWVSLADQESCKGRCTQGFMASKKCQCDELCTYYQSCCADYMEQCKPQVTRGDVFTMPEDDYWSYDYVEEPKNNTNTGVQPENTSPPGDLNPRTDGTLKPTAFLDPEEQPSTPAPKVEQQEEILRPDTTDQGTPEFPEEELCSGKPFDAFTDLKNGSLFAFRGQYCYELDETAVRPGYPKLIQDVWGIEGPIDAAFTRINCQGKTYLFKGSQYWRFEDGVLDPGYPRNISEGFSGIPDNVDAAFALPAHRYSGRERVYFFKGKQYWEYEFQQQPSQEECEGSSLSAVFEHFALLQRDSWENIFELLFWGRSSDGAREPQFISRNWHGVPGKVDAAMAGRIYVTGSLSHSAQAKKQKSKRRSRKRYRSRRGRGHRRSQSSNSRRSSRSIWFSLFSSEESGLGTYNNYDYDMDWLVPATCEPIQSVYFFSGDKYYRVNLRTRRVDSVNPPYPRSIAQYWLGCPTSEK
modifications: full-length

experiment: Proteomic analysis of native murine pancreata and decelled pancreatic ECM (Table 1); set-up: species or system mouse; details: abundance of the listed protein in decelled pancreatic ECM

Molecule	Pancreatic ECM: Mean of log2(intensities)
B1	25.00 a.u.
B2	26.06 a.u.
B3	25.63 a.u.
B4	25.80 a.u.
B5	25.66 a.u.
B6	24.98 a.u.
B7	25.53 a.u.
B8	24.61 a.u.
B9	25.18 a.u.
B10	25.56 a.u.
B11	25.77 a.u.

same assay, conditions: abundance of the listed protein in native murine pancreas tissue

Molecule	Native pancreas tissue: Mean of log2(intensities)
B1	21.60 a.u.
B2	22.66 a.u.
B3	22.25 a.u.
B4	22.49 a.u.
B5	22.35 a.u.
B6	21.67 a.u.
B7	22.24 a.u.
B8	21.43 a.u.
B9	22.00 a.u.
B10	22.40 a.u.
B11	21.35 a.u.
